The text below walks through data of ChEMBL document CHEMBL4513140, “CO-ADD screening of Lancaster University (UK) compounds” (2021).

In general, Inhibition refers to the drop in the measured response relative to a control, in per cent.

The list shows a part of the results. Measured potencies and affinities stand elsewhere.

The test deals with Pseudomonas aeruginosa. The settings on record: Concentration 32 ug.mL-1; ASSAY_TEST Inhibition of Bacterial Growth; detection method Absorption (OD600); MEDIA CAMHB; plate type 384well; NBS; CORNING #3640; time 18 hr.
For the compound `c1ccc2nc3c4cccnc4c4ncccc4c3nc2c1`, the Inhibition is 25.83%.
Under `COC(=O)c1ccc(S)cc1` stands 0.41%; under `CC(=NN)c1cc(/C(C)=N/N)cc(/C(C)=N/N)c1`, -1.52%; under `CC(=O)c1cc(C(C)=O)cc(C(C)=O)c1`, 9.23%.
